These are yes or no findings as the source states them, for the method shown.
B1: BMPRII ECD Y67C (domain or fragment, UniProt Q13873-1 27-150)
chain: SQNQERLCAFKDPYQQDLGIGESRISHENGTILCSKGSTCCGLWEKSKGDINLVKQGCWSHIGDPQECHYEECVVTTTPPSIQNGTYRFCCCSTDLCNVNFTENFPPPDTTPLSPPHSFNRDET
B2: BMPRII ECD G68D (domain or fragment, UniProt Q13873-1 27-150)
chain: SQNQERLCAFKDPYQQDLGIGESRISHENGTILCSKGSTCYDLWEKSKGDINLVKQGCWSHIGDPQECHYEECVVTTTPPSIQNGTYRFCCCSTDLCNVNFTENFPPPDTTPLSPPHSFNRDET
B3: BMPRII ECD G83E (domain or fragment, UniProt Q13873-1 27-150)
chain: SQNQERLCAFKDPYQQDLGIGESRISHENGTILCSKGSTCYGLWEKSKGDINLVKQECWSHIGDPQECHYEECVVTTTPPSIQNGTYRFCCCSTDLCNVNFTENFPPPDTTPLSPPHSFNRDET

What follows are binders tested against T1, Recombinant human BMP10 growth factor (GF)-domain (R&D Systems) (human) (UniProt O95393) (assay: SPR; Biacore T200; BMP10 GF-domain amine-coupled to a CM5 chip (1300 RU); ALK1-Fc, BMPRII-Fc or monomeric BMPRII WT and mutant ECDs injected at 40 ul/min; 10 mM HEPES pH 7.4, 150 mM NaCl, 3.4 mM EDTA, 0.5 mg/ml BSA, 0.005% P20, 25 °C; 1:1 model, KD = kd/ka; both purified).
T1 sequence: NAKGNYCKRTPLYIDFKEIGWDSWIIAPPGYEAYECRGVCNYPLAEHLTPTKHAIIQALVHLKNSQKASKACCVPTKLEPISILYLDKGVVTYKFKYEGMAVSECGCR

binding, no binding:
B1
B2
B3

From paper PMC9064986
